# Reference: the supplement of paper PMC6411743
# Chains of the proteins cited; added tags and fusions are not shown. Lines headed by an entry give the natural chain unless they say otherwise; changes in a name come on top.
# UniProt Q8WU39: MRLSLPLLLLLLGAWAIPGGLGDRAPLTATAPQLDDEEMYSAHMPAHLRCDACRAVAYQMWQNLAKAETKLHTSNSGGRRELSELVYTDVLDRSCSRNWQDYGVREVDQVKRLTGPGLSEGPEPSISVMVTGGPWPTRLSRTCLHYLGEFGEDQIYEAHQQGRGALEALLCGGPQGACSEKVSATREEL
# UniProt Q92734, whole entry: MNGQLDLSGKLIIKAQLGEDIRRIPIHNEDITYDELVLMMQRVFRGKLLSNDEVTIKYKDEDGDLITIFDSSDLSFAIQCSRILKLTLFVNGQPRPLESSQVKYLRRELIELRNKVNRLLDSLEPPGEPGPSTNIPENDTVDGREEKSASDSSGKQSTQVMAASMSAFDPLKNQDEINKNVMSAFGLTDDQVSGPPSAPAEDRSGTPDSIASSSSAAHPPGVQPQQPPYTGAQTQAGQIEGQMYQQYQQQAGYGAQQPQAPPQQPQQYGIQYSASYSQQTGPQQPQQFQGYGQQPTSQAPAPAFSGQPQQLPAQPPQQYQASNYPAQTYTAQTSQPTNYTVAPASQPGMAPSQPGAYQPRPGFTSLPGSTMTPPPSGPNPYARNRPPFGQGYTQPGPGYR
# UniProt Q92506: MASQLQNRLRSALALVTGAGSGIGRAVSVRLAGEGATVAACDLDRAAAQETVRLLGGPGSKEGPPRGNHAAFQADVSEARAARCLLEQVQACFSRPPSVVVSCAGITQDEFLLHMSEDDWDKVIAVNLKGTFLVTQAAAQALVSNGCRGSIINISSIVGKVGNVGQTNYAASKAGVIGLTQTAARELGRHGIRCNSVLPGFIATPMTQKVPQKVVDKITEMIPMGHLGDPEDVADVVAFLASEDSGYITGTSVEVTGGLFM
# UniProt Q8TD19: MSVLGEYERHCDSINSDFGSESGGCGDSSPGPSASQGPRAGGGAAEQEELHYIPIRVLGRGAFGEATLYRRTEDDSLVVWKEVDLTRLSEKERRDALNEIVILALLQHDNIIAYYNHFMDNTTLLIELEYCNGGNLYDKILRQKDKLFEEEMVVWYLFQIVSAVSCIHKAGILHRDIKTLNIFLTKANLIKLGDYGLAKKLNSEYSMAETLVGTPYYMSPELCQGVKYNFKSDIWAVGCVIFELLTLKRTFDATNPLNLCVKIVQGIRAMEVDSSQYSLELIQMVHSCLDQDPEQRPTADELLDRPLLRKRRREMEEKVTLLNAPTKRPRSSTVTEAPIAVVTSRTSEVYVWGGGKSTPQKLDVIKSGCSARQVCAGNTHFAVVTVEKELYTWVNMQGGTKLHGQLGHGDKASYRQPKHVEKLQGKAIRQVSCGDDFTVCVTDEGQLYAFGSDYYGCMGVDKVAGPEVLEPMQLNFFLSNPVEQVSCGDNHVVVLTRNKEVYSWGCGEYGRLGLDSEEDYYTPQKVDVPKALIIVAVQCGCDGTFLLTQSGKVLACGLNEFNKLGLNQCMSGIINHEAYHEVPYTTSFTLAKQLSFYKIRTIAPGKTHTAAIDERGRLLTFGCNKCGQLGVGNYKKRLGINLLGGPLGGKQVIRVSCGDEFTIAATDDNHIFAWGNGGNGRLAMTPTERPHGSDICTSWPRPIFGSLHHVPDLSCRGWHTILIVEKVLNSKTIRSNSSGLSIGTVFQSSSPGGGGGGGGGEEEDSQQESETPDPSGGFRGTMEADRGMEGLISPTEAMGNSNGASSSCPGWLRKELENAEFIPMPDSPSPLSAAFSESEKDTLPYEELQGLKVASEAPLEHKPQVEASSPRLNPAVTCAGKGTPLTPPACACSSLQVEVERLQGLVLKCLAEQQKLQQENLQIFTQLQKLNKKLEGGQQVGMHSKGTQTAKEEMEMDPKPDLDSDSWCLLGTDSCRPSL
# UniProt Q92572: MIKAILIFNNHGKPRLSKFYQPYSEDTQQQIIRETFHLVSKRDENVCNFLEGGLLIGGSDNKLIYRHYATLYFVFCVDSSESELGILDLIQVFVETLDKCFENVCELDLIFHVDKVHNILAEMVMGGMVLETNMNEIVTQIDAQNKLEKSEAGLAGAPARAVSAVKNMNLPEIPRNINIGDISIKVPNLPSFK
# UniProt Q96A49: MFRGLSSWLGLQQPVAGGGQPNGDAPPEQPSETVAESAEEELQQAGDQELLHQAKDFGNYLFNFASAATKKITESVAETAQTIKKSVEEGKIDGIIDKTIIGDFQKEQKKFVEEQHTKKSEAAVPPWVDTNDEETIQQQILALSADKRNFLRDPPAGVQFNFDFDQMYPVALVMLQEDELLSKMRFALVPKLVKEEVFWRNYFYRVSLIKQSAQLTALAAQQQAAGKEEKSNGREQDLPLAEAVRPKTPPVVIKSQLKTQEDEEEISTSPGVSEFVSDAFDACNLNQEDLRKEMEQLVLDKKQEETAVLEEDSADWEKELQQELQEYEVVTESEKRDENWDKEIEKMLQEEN
# UniProt Q8WVJ2: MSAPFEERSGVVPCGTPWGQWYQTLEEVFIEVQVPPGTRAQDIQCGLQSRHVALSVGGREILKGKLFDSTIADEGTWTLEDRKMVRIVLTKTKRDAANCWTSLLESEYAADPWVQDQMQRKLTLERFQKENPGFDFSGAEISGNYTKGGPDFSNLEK
# UniProt Q8WVD3: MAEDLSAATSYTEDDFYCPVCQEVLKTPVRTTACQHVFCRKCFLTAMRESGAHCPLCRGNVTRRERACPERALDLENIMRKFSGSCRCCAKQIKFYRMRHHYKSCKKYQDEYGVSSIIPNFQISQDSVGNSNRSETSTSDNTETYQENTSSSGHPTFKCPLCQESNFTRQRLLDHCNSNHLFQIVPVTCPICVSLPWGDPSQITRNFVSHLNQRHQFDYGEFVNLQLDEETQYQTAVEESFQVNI
# UniProt Q8WZA0: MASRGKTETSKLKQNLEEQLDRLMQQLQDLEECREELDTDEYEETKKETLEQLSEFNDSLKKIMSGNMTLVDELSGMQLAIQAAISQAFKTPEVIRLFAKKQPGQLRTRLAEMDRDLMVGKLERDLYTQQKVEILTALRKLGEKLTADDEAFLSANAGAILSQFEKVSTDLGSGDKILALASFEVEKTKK
# UniProt Q92859: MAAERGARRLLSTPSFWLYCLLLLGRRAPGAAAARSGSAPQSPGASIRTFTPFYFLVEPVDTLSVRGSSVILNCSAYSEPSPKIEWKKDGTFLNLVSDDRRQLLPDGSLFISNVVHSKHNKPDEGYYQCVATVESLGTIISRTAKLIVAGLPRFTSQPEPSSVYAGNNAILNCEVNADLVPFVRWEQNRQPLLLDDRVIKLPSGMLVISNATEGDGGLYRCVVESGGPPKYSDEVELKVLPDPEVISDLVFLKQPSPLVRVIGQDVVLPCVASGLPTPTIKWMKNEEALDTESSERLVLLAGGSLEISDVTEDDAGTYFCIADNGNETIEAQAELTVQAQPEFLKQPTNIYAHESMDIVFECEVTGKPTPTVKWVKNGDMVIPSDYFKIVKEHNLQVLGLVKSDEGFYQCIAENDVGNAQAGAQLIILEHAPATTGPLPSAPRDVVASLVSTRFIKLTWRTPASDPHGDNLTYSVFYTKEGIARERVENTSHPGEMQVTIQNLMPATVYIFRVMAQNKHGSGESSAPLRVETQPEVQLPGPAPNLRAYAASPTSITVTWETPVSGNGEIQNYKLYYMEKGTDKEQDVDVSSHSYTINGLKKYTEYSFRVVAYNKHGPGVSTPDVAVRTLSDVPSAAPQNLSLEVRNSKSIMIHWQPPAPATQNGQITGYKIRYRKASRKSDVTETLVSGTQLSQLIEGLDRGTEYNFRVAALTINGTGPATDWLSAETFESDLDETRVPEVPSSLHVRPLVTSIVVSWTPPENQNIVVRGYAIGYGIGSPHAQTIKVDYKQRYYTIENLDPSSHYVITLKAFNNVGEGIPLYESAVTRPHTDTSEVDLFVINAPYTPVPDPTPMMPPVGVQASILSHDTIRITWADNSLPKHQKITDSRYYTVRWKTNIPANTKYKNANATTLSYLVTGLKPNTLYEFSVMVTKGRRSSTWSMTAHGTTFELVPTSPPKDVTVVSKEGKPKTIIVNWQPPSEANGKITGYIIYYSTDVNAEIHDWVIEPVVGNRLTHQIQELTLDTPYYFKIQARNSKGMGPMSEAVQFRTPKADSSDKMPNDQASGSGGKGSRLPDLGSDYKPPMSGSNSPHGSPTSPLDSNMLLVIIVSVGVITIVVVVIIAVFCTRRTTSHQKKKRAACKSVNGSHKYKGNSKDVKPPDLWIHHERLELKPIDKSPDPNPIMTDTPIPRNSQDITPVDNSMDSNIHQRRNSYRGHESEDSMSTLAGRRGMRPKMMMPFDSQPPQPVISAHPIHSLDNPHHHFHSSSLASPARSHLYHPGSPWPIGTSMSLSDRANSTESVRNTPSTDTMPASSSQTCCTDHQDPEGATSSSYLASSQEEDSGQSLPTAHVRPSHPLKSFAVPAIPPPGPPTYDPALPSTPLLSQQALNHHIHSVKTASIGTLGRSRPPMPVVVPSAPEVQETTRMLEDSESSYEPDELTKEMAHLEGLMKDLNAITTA
# UniProt Q92545: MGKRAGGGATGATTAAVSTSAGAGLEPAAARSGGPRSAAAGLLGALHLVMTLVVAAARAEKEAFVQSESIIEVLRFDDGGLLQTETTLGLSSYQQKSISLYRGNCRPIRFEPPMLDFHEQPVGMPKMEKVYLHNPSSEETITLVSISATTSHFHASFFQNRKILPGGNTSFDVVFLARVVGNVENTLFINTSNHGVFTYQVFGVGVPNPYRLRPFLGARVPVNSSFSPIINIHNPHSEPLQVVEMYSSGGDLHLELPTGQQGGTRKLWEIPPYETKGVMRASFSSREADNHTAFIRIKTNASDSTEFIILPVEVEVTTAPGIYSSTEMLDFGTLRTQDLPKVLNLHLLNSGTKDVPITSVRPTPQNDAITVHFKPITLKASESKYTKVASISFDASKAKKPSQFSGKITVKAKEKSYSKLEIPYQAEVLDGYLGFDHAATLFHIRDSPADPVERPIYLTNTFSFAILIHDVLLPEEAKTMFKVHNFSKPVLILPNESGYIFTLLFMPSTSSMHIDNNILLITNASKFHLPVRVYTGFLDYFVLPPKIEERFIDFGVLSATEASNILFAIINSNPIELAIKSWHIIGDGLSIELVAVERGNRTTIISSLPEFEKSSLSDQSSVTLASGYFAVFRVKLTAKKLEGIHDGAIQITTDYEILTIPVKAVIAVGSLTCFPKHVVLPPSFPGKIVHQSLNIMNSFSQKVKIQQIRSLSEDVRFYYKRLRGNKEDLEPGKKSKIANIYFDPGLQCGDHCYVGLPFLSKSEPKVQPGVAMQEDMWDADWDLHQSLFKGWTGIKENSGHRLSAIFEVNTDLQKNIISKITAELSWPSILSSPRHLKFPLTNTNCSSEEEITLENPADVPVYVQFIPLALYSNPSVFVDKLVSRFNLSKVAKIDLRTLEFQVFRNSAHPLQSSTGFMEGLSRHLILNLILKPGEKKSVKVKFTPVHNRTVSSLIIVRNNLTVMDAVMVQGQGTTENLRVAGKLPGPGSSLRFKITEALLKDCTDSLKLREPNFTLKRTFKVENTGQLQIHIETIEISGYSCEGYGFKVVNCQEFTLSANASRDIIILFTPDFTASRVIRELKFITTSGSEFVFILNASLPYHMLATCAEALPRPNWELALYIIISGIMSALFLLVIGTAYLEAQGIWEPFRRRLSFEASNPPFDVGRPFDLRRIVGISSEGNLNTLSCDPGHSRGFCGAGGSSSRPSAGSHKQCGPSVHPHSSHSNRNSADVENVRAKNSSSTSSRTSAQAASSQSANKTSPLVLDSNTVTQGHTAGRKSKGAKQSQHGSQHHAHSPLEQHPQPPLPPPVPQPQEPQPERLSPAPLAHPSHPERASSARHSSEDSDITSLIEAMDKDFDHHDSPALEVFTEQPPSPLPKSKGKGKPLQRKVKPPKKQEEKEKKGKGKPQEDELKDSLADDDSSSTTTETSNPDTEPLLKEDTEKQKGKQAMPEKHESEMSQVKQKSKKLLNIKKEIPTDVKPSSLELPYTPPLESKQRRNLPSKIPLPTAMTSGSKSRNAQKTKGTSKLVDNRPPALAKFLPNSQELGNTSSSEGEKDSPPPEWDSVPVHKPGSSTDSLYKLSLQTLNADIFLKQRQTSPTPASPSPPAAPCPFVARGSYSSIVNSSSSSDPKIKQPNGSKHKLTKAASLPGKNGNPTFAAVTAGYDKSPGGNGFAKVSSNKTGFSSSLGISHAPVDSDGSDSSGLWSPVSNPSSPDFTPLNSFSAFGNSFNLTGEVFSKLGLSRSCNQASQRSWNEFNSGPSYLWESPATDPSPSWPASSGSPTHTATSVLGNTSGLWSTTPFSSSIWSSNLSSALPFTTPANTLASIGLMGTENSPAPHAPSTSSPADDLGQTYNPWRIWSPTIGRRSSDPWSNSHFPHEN
# UniProt Q96A57: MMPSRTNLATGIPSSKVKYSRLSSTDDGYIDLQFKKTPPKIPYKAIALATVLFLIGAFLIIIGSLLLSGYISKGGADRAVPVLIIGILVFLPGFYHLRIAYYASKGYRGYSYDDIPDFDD
# UniProt Q8WVK2: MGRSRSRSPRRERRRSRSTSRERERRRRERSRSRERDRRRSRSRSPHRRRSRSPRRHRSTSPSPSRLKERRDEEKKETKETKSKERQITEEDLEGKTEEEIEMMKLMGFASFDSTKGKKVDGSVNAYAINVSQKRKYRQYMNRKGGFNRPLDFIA
# ± gives the standard deviation of the averaged measurements. The list shows a part of the results, in another mix than the full data.
# Compound: Nc1ncnc2c1ncn2[C@@H]1O[C@H](COP(=O)(O)OP(=O)(O)OP(=O)(O)O)[C@@H](O)[C@H]1O [adenosine triphosphate]
# Experiment: NP40-soluble protein abundance relative to vehicle (solubility fold change) (ratio); higher = more soluble protein in presence of ATP
# In short: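 Crude Jurkat lysate, prepared by Dounce homogenisation, was exposed to eight concentrations from 0.1 to 10 mM for 10 min at room temperature and then 3 min at 37 °C. Solubilisation used 0.8% NP40 with benzonase for 60 min at 4 °C, followed by ultracentrifugation and TMT labelling of the supernatant for LC-MS/MS. After vsn normalisation of intensities, each value is the fold change against the detergent-processed vehicle within each replicate, across three independent experiments.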
Target,NP40-soluble protein abundance (concentration: 1mM),NP40-soluble protein abundance (concentration: 2mM),NP40-soluble protein abundance (concentration: 4mM),NP40-soluble protein abundance (concentration: 6mM),NP40-soluble protein abundance (concentration: 8mM),NP40-soluble protein abundance (concentration: 10mM)
MZB1 (UniProt Q8WU39),0.938 ± 0.13,0.9 ± 0.12,0.906 ± 0.053,0.9 ± 0.13,0.918 ± 0.018,0.844 ± 0.092
UniProt Q92734 and related entries,0.879 ± 0.04,0.907 ± 0.04,0.876 ± 0.058,0.909 ± 0.062,0.854 ± 0.045,0.878 ± 0.013
UniProt Q8TD16-2|Q8TD16,0.98 ± 0.053,0.988 ± 0.022,0.978 ± 0.015,1.01 ± 0.039,0.951 ± 0.022,0.938 ± 0.028
EDEM1 (UniProt Q92611),0.961 ± 0.063,1 ± 0.036,0.951 ± 0.088,0.959 ± 0.069,0.967 ± 0.015,0.965 ± 0.061
CCDC12 (UniProt Q8WUD4),0.882 ± 0.11,0.863 ± 0.065,0.829 ± 0.095,0.847 ± 0.12,0.881 ± 0.03,0.727 ± 0.26
UniProt Q8WWC4,1.04 ± 0.15,1.02 ± 0.11,1 ± 0.08,0.946 ± 0.11,1.07 ± 0.11,1.01 ± 0.061
CREBBP (UniProt Q92793),0.971 ± 0.028,1.03 ± 0.052,0.996 ± 0.037,1.01 ± 0.048,0.993 ± 0.054,1.02 ± 0.018
HSD17B8 (UniProt Q92506),0.949 ± 0.033,0.961 ± 0.025,0.911 ± 0.063,0.985 ± 0.073,0.94 ± 0.051,0.931 ± 0.017
NEK9 (UniProt Q8TD19),0.978 ± 0.023,0.982 ± 0.021,0.9811 ± 0.004,0.936 ± 0.022,0.967 ± 0.011,0.978 ± 0.021
UniProt Q92572,0.895 ± 0.1,0.945 ± 0.038,0.979 ± 0.013,0.966 ± 0.056,0.938 ± 0.015,0.919 ± 0.028
UniProt Q92844 and related entries,0.966 ± 0.065,0.986 ± 0.094,0.974 ± 0.052,1.04 ± 0.12,0.946 ± 0.053,0.934 ± 0.034
ISL2 (UniProt Q96A47),0.963 ± 0.078,1.03 ± 0.065,0.986 ± 0.087,0.897 ± 0.1,0.932 ± 0.043,1.01 ± 0.11
PI4K2B (UniProt Q8TCG2),1.01 ± 0.094,0.978 ± 0.13,1.05 ± 0.17,0.946 ± 0.13,0.991 ± 0.072,0.922 ± 0.12
GCDH (UniProt Q92947),0.937 ± 0.059,0.938 ± 0.031,0.925 ± 0.015,0.895 ± 0.041,0.936 ± 0.024,0.947 ± 0.022
SYAP1 (UniProt Q96A49),0.961 ± 0.056,0.944 ± 0.048,0.925 ± 0.044,0.957 ± 0.037,0.912 ± 0.015,0.903 ± 0.045
NUDCD2 (UniProt Q8WVJ2),0.983 ± 0.057,0.967 ± 0.013,0.963 ± 0.035,1.03 ± 0.051,0.95 ± 0.073,0.885 ± 0.035
UniProt Q93084-2,1.01 ± 0.04,0.997 ± 0.024,0.974 ± 0.017,0.976 ± 0.047,0.994 ± 0.015,0.978 ± 0.02
UniProt Q8TBE0 and related entries,1.03 ± 0.035,0.991 ± 0.038,1.08 ± 0.02,1.1 ± 0.069,1.121 ± 0.0067,1.22 ± 0.13
UniProt Q969S9 and related entries,1.03 ± 0.067,1.01 ± 0.04,1.04 ± 0.07,0.973 ± 0.054,1.01 ± 0.043,1.01 ± 0.046
ZNF622 (UniProt Q969S3),1.05 ± 0.088,1.07 ± 0.052,1.09 ± 0.057,1.12 ± 0.062,1.09 ± 0.053,1.11 ± 0.043
RNF138 (UniProt Q8WVD3),1.06 ± 0.011,1.11 ± 0.025,1.09 ± 0.058,1.1 ± 0.034,1.04 ± 0.06,1.1 ± 0.035
UniProt Q8WZA0 and related entries,0.92 ± 0.059,0.915 ± 0.059,0.925 ± 0.096,0.908 ± 0.025,0.906 ± 0.074,0.818 ± 0.11
UniProt Q92859 and related entries,0.976 ± 0.057,0.981 ± 0.038,0.9896 ± 0.0073,1.02 ± 0.04,0.958 ± 0.08,0.966 ± 0.046
SORL1 (UniProt Q92673),0.964 ± 0.031,0.971 ± 0.023,0.949 ± 0.028,0.968 ± 0.024,0.927 ± 0.046,0.935 ± 0.029
TOPBP1 (UniProt Q92547),1.07 ± 0.052,1.07 ± 0.013,1.08 ± 0.06,1.1 ± 0.072,1.12 ± 0.04,1.12 ± 0.068
TMEM131 (UniProt Q92545),1.06 ± 0.11,1.09 ± 0.091,1.08 ± 0.057,1.15 ± 0.21,1.01 ± 0.12,1.2 ± 0.082
CASKIN2 (UniProt Q8WXE0),1 ± 0.036,1.05 ± 0.034,1.05 ± 0.045,1.03 ± 0.069,0.988 ± 0.053,1.04 ± 0.019
UniProt Q96A57 and related entries,0.707 ± 0.18,0.687 ± 0.23,0.663 ± 0.27,0.664 ± 0.25,0.677 ± 0.27,0.626 ± 0.25
UniProt Q8WVK2 and related entries,1.16 ± 0.13,1.11 ± 0.16,1.1 ± 0.16,1.16 ± 0.21,1.07 ± 0.13,1.11 ± 0.19
ANKS1A (UniProt Q92625),0.906 ± 0.029,0.949 ± 0.017,0.943 ± 0.027,0.94 ± 0.035,0.927 ± 0.01,0.9618 ± 0.009

# Rewritten with tabs: entries from further up.
Target	NP40-soluble protein abundance (concentration: 1mM)	NP40-soluble protein abundance (concentration: 2mM)	NP40-soluble protein abundance (concentration: 4mM)	NP40-soluble protein abundance (concentration: 6mM)	NP40-soluble protein abundance (concentration: 8mM)	NP40-soluble protein abundance (concentration: 10mM)
CCDC12 (UniProt Q8WUD4)	0.882 ± 0.11	0.863 ± 0.065	0.829 ± 0.095	0.847 ± 0.12	0.881 ± 0.03	0.727 ± 0.26
UniProt Q96A57 and related entries	0.707 ± 0.18	0.687 ± 0.23	0.663 ± 0.27	0.664 ± 0.25	0.677 ± 0.27	0.626 ± 0.25
